Results are given in words; binding and its absence hold for the method and conditions named.
How the values were obtained:
[1] = biological target: wild-type human MORC2(1–603) (human) (UniProt Q9Y6X9); assay: SEC-MALS; SEC-MALS with QELS, Superdex 200 (10/300), 293 K, gel filtration buffer (50 mM HEPES pH 7.5, 150 mM NaCl, 2 mM MgCl2, 0.25 mM TCEP); no nucleotide added; WT at 40 µM, S87L at 7.5 µM; monomer to dimer; both purified
[2] = biological target: MORC2(1–603) Y18A (human) (UniProt Q9Y6X9); assay: SEC-MALS; SEC-MALS with QELS, Superdex 200 (10/300), 293 K, gel filtration buffer; 2 mM Mg-AMPPNP added to the sample, 30 min on ice before injection; WT at 40 µM, T424R at 7.5 µM; monomer to dimer; both purified
[3] = biological target: MORC2(1–603) N39A (human) (UniProt Q9Y6X9); assay: SEC; SEC of the N39A mutant (Supplementary Figs. 2 and 8), used with DSF to test Mg-AMPPNP binding; both purified
[4] = biological target: MORC2(1–603) T424R (human) (UniProt Q9Y6X9); assay: condition: only during purification, no nucleotide added; SEC; size-exclusion chromatography at purification, Superdex 200 increase (10/300), MORC2 gel filtration buffer, 4 °C, no nucleotide added; both purified

Question: “wild-type human MORC2(1–603) (from UniProt Q9Y6X9-1 1-603) (domain or fragment)” was tested. Which binding [1] did it give?
Answer: no binding (condition: without nucleotide (apo), 40 µM)

B1: MORC2(1–603) Y18A (domain or fragment, UniProt Q9Y6X9-1 1-603)
chain: MAFTNYSSLNRAQLTFEALHTNSTTHEFLFGALAELVDNARDADATRIDIYAERREDLRGGFMLCFLDDGAGMDPSDAASVIQFGKSAKRTPESTQIGQYGNGLKSGSMRIGKDFILFTKKEDTMTCLFLSRTFHEEEGIDEVIVPLPTWNARTREPVTDNVEKFAIETELIYKYSPFRTEEEVMTQFMKIPGDSGTLVIIFNLKLMDNGEPELDIISNPRDIQMAETSPEGTKPERRSFRAYAAVLYIDPRMRIFIHGHKVQTKRLSCCLYKPRMYKYTSSRFKTRAEQEVKKAEHVARIAEEKAREAESKARTLEVRLGGDLTRDSRVMLRQVQNRAITLRREADVKKRIKEAKQRALKEPKELNFVFGVNIEHRDLDGMFIYNCSRLIKMYEKVGPQLEGGMACGGVVGVVDVPYLVLEPTHNKQDFADAKEYRHLLRAMGEHLAQYWKDIAIAQRGIIKFWDEFGYLSANWNQPPSSELRYKRRRAMEIPTTIQCDLCLKWRTLPFQLSSVEKDYPDTWVCSMNPDPEQDRCEASEQKQKVPLGTFRKDMKTQEEKQKQLTEKIRQQQEKLEALQKTTPIRSQADLKKLPLEVTTRPST
Question: For B1, which binding [2] is on record?
Answer: no binding

B2: MORC2(1–603) N39A (domain or fragment, UniProt Q9Y6X9-1 1-603)
chain: MAFTNYSSLNRAQLTFEYLHTNSTTHEFLFGALAELVDAARDADATRIDIYAERREDLRGGFMLCFLDDGAGMDPSDAASVIQFGKSAKRTPESTQIGQYGNGLKSGSMRIGKDFILFTKKEDTMTCLFLSRTFHEEEGIDEVIVPLPTWNARTREPVTDNVEKFAIETELIYKYSPFRTEEEVMTQFMKIPGDSGTLVIIFNLKLMDNGEPELDIISNPRDIQMAETSPEGTKPERRSFRAYAAVLYIDPRMRIFIHGHKVQTKRLSCCLYKPRMYKYTSSRFKTRAEQEVKKAEHVARIAEEKAREAESKARTLEVRLGGDLTRDSRVMLRQVQNRAITLRREADVKKRIKEAKQRALKEPKELNFVFGVNIEHRDLDGMFIYNCSRLIKMYEKVGPQLEGGMACGGVVGVVDVPYLVLEPTHNKQDFADAKEYRHLLRAMGEHLAQYWKDIAIAQRGIIKFWDEFGYLSANWNQPPSSELRYKRRRAMEIPTTIQCDLCLKWRTLPFQLSSVEKDYPDTWVCSMNPDPEQDRCEASEQKQKVPLGTFRKDMKTQEEKQKQLTEKIRQQQEKLEALQKTTPIRSQADLKKLPLEVTTRPST
Question: How did the binding [3] turn out when B2 was run?
Answer: no binding

B3: MORC2(1–603) T424R (domain or fragment, human, UniProt Q9Y6X9-1 1-603, looked up)
chain: MAFTNYSSLNRAQLTFEYLHTNSTTHEFLFGALAELVDNARDADATRIDIYAERREDLRGGFMLCFLDDGAGMDPSDAASVIQFGKSAKRTPESTQIGQYGNGLKSGSMRIGKDFILFTKKEDTMTCLFLSRTFHEEEGIDEVIVPLPTWNARTREPVTDNVEKFAIETELIYKYSPFRTEEEVMTQFMKIPGDSGTLVIIFNLKLMDNGEPELDIISNPRDIQMAETSPEGTKPERRSFRAYAAVLYIDPRMRIFIHGHKVQTKRLSCCLYKPRMYKYTSSRFKTRAEQEVKKAEHVARIAEEKAREAESKARTLEVRLGGDLTRDSRVMLRQVQNRAITLRREADVKKRIKEAKQRALKEPKELNFVFGVNIEHRDLDGMFIYNCSRLIKMYEKVGPQLEGGMACGGVVGVVDVPYLVLEPRHNKQDFADAKEYRHLLRAMGEHLAQYWKDIAIAQRGIIKFWDEFGYLSANWNQPPSSELRYKRRRAMEIPTTIQCDLCLKWRTLPFQLSSVEKDYPDTWVCSMNPDPEQDRCEASEQKQKVPLGTFRKDMKTQEEKQKQLTEKIRQQQEKLEALQKTTPIRSQADLKKLPLEVTTRPST
notes: also called T424R variant; source: Sf9 insect cells (baculovirus), purified as for wild type; not shown: tandem StrepII, N-terminal, cleaved
Question: Which binding [4] does the source give for B3 here?
Answer: no binding

Source: publication PMC5811534, “Neuropathic MORC2 mutations perturb GHKL ATPase dimerization dynamics and epigenetic silencing by multiple structural mechanisms” (Nature Communications, 2018)
